These results are taken from patent US5498695A (Pfizer Inc., priority 1994, dated 1996).

Strings that start with PEPTIDE1 are HELM notation: dots part the residues, brackets hold end groups and non-standard residues.

The data set is described as follows: general procedure: solution-phase peptide synthesis; DEC.HCl / N-hydroxysuccinimide. Conditions: late stage modification step.

PEPTIDE1{[ac].Y.V.A.D.[pNA]}$$$$V2.0 registered a step yield of 87%.
